Data source: PubChem BioAssay AID504744 (Drosophila RNAi Screening Center, 2011)

Assay: 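Find genes whose loss alters insulin-driven dAkt phosphorylation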 (primary screen)
Cells: Drosophila Kc167 cells
Reagent: long dsRNA against Drosophila genes, 250 ng dsRNA per well of a 384-well plate
Time to read-out: 3 days of knock-down, then overnight serum-free starvation before stimulation
Conditions: bovine insulin at 387 nM for 10 minutes after 12 h without serum
Detection: 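Per-well phospho-dAkt level from an in-cell fluorescent antibody stain, divided by a DNA-dye signal; log2 residuals turned into z-scores that take cell number into account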
Active means: 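Under insulin, a gene counts as a hit if the average z-score of two replicates lies above 2.5 or below -2.5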
The screen tested about 23,000 reagents; this is a random part of those that have a named target and a result. Over the whole deposit, 98 (0.43%) got an active call. 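Only hit calls are given; the phospho-dAkt signals, z-scores and hit direction were not deposited.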 Names joined by + are all predicted targets of the reagent.

target	dsRNA	outcome
CG30432	DRSC04833	inactive
Gr28a	DRSC02290	inactive
pigs	DRSC17472	inactive
pigs	DRSC18334	inactive
pigs	DRSC18335	inactive
CheA86a	DRSC12839	inactive
CG17109	DRSC15172	inactive
CG4041	DRSC18339	inactive
CG3698	DRSC11749	inactive
CLS	DRSC15642	inactive
Phs	DRSC10827	inactive
CG12567	DRSC20845	inactive
CG12519	DRSC10311	inactive
CG12519	DRSC21549	inactive
Hph	DRSC12164	inactive
Hph	DRSC12251	inactive
CG13005	DRSC19524	inactive
Mipp2	DRSC18682	inactive
CG8289	DRSC20101	inactive
CG4291	DRSC00650	inactive
sphe	DRSC20203	inactive
pch2	DRSC14368	inactive
CG31782 (retired record)	DRSC01554	inactive
CG31782 (retired record)	DRSC01556	inactive
Hen1	DRSC06139	inactive
Hen1	DRSC06140	inactive
ACXE	DRSC00847	inactive
RhoGAP92B	DRSC14507	inactive
RhoGAP92B	DRSC15637	inactive
MFS15	DRSC06523	inactive
CG31913	DRSC00892	inactive
Prip	DRSC07044	inactive
Anp	DRSC14112	inactive
Shab	DRSC08013	inactive
Shab	DRSC08643	inactive
Shab	DRSC08699	inactive
CG2111	DRSC18205	inactive
robo1	DRSC04712	inactive
Muc26B	DRSC02322	inactive
PolD1	DRSC11138	inactive
Sec16	DRSC19788	active
Sec16	DRSC19858	inactive
Cyp6a9	DRSC07385	inactive
atlas	DRSC04183	inactive
Hs6st	DRSC14348	inactive
Hs6st	DRSC15182	inactive
Hs6st	DRSC15581	inactive
Hs6st	DRSC21732	inactive
CG10031	DRSC00286	inactive
wde	DRSC05955	inactive
CG14079	DRSC10083	inactive
Rai1	DRSC20157	inactive
HmgD	DRSC04619	inactive
caz	DRSC20317	inactive
caz	DRSC22594	inactive
Socs36E	DRSC02455	inactive
CG14563	DRSC11724	inactive

A stretch of the results above, as a working copy:
target	dsRNA	outcome
Sec16	DRSC19788	active
Sec16	DRSC19858	inactive
Cyp6a9	DRSC07385	inactive
atlas	DRSC04183	inactive
Hs6st	DRSC14348	inactive
Hs6st	DRSC15182	inactive
Hs6st	DRSC15581	inactive
Hs6st	DRSC21732	inactive
CG10031	DRSC00286	inactive
wde	DRSC05955	inactive
CG14079	DRSC10083	inactive
Rai1	DRSC20157	inactive
HmgD	DRSC04619	inactive

Continued.
target	dsRNA	outcome
Andorra	DRSC19475	inactive
Mnr	DRSC20549	inactive
Mnr	DRSC20550	inactive
Mnr	DRSC22441	inactive
l(2)SH0834	DRSC02854	inactive
COX8	DRSC11814	inactive
nonA-l	DRSC17017	inactive
CG18808	DRSC08539	inactive
wal	DRSC07717	inactive
Cyp9h1	DRSC07391	inactive
Pgant9	DRSC05621	inactive
Pgant9	DRSC06584	inactive
Pgant9	DRSC07185	inactive
Pgant9	DRSC07186	inactive
Pgant9	DRSC07187	inactive
Pgant9	DRSC07189	inactive
Pgant9	DRSC21807	inactive
Pgant9	DRSC22076	inactive
Past1	DRSC16784	inactive
CG12865 (retired record)	DRSC06205	inactive
Mal-A7	DRSC06077	inactive
egr	DRSC06233	inactive
mRpL46	DRSC08391	inactive
SmydA-1	DRSC07200	inactive
CG17249	DRSC08517	inactive
Tspo	DRSC00533	inactive
CG32369	DRSC10042	inactive
CG32369	DRSC10834	inactive
CG3650	DRSC04401	inactive
Ser7	DRSC18201	inactive
CG34165	DRSC01970	inactive
CG13887	DRSC08357	inactive
Prosalpha7	DRSC07516	inactive
Vha16-4 + CG15614	DRSC07321	inactive
Gpxl	DRSC06538	inactive
CG14671	DRSC12257	inactive
Eip78C	DRSC11864	inactive
CG44085	DRSC02922	inactive
Rpe	DRSC06407	inactive
CG9162 (retired record)	DRSC03151	inactive
CG3568	DRSC18312	inactive
CG15226 (retired record)	DRSC03829	inactive
CG15226 (retired record)	DRSC04233	inactive
CG11149	DRSC02130	inactive
CG14764	DRSC05072	inactive
CG14764	DRSC06498	inactive
CG14764	DRSC06844	inactive
PDZ-GEF	DRSC03231	inactive
Syx8	DRSC10402	inactive
Syx8	DRSC22498	inactive
CG17104	DRSC02573	inactive
sra	DRSC17015	inactive
CG14818	DRSC18548	inactive
CG15753 (retired record)	DRSC19718	inactive
CG31523	DRSC12009	inactive
CG31523	DRSC12337	inactive
MED10	DRSC10474	inactive
CG43672	DRSC19452	inactive
CG43672	DRSC20108	inactive
Rlb1	DRSC16826	inactive
CG14423	DRSC17920	inactive
Myo95E	DRSC15821	inactive
Syx1A	DRSC15359	inactive
Syx1A	DRSC21554	inactive
CG12081	DRSC17802	inactive
CG30467	DRSC07097	inactive
CG2157	DRSC19836	inactive
Bin1	DRSC16843	inactive
CG33272	DRSC09116	inactive
CG7101	DRSC20023	inactive
CG7101	DRSC22845	inactive
CG17977	DRSC06700	inactive
CG5039	DRSC15703	inactive
Obp49a	DRSC22562	inactive
wdp	DRSC04367	inactive
CG14694	DRSC14917	inactive
nht	DRSC01976	inactive
kek4	DRSC03220	inactive
TfIIFbeta	DRSC16884	inactive
TfIIFbeta	DRSC21447	inactive
CG30384	DRSC06032	inactive
lectin-30A	DRSC02560	inactive
Ipp	DRSC16718	inactive
mRpL50	DRSC11015	inactive
Ppat-Dpck	DRSC09744	inactive
CG32137	DRSC10271	inactive
CG32137	DRSC10272	inactive
CG33292 (retired record)	DRSC22923	inactive
brv2	DRSC10226	inactive
nanos	DRSC17018	inactive
rngo	DRSC19903	inactive
Polr1B	DRSC00780	inactive
tbrd-3	DRSC04295	inactive
CG10479	DRSC09733	inactive
CG2310	DRSC15438	inactive
CG17219	DRSC00486	inactive
CG1440	DRSC17915	inactive
srp	DRSC13125	inactive
srp	DRSC17068	inactive
Gat	DRSC17144	inactive
